According to patent US20210137890A1, “DEUTERATED IMIDAZOLIDINEDIONE COMPOUNDS AND THEIR USES” (priority 2018, published 2021):

Test system: LNCaP
Assay: LNCaP growth inhibition
Type: cell-based
Conditions: Homo sapiens

## CNC(=O)c1ccc(N2C(=S)N(c3ccc(C#N)c(C(F)(F)F)c3)C(=O)C2(C)C)cc1F [enzalutamide]
  IC50: 0.12 nM
